Measured values: paper PMC7862700
This is a selection; strong and weak results do not stand in their true shares. For part of these data: At the low end of the ranking, values are background and their order means little. The list shows a part of the results. For part of these data: The exact form of the protein is not confirmed.

Amino acid sequences for entries named in this document (tags omitted). A change or cut given only in a name is not applied to a line headed by its entry.
UniProt Q00613: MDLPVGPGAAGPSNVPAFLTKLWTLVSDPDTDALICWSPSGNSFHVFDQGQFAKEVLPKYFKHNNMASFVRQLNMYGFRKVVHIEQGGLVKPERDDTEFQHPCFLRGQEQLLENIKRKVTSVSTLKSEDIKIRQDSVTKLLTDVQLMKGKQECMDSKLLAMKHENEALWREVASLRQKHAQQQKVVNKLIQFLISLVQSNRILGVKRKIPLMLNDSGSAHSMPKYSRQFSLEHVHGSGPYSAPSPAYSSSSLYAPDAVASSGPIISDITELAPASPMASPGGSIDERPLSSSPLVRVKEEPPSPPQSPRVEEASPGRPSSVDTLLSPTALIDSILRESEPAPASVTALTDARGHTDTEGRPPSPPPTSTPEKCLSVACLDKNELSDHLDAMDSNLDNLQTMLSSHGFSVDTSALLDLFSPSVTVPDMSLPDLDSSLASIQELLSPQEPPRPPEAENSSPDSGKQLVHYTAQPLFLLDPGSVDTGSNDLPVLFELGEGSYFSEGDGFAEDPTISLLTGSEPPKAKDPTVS

target: HSF1 (UniProt Q00613); test: DAPPL (digital affinity profiling via proximity ligation, sequencing); conditions: 10 mM Tris-HCl pH 7.5, 50 mM NaCl, 1 mM DTT, 4% glycerol, room temperature, 30 min; GST-TFs on glutathione beads, 16-mer random dsDNA library, 0.1% …; high values mean tight binding; double strand, one strand shown; scale: fold enrichment (6-mer frequency, TF over GST control)

Row | Sequence | binding signal
1 | CGTAGC | 0.882
2 | TCAGCC | 0.973
3 | TGTATA | 1
4 | AGCTCT | 1.25
5 | CTTTCG | 1.65
6 | CTCGAG | 2
7 | TGGCCA | 0.915
8 | CGCACT | 0.972
9 | CATCAA | 0.871
10 | TAAAGG | 1.15
11 | AAGGTC | 0.868

target: T1, ELF2 (UniProt Q15723); test: as above; conditions: 10 mM Tris-HCl pH 7.5, 50 mM NaCl, 1 mM DTT, 4% glycerol, room temperature, 30 min; GST-TFs on glutathione beads, 16-mer random dsDNA library, 0.1% …; high values mean tight binding; double strand, one strand shown; scale: fold enrichment (6-mer frequency, TF over GST control)
T1 sequence: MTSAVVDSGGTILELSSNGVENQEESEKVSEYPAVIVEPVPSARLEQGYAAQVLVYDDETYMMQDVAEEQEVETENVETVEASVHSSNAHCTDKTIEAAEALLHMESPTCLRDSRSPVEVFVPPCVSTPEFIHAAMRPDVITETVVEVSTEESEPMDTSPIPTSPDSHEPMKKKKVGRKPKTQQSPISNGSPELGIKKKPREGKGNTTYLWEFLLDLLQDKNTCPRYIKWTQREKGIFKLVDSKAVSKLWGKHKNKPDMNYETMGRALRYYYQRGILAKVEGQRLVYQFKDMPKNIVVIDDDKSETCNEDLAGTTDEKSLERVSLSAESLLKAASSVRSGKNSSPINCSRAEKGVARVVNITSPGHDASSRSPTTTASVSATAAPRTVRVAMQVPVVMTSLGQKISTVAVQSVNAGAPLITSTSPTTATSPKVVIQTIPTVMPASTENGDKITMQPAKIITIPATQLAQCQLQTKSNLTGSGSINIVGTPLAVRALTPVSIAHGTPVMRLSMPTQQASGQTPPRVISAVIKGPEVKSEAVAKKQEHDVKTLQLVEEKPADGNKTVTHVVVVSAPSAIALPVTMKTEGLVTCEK

Row | Sequence | binding signal
12 | CTTCTT | 1.7
13 | TGTATG | 1.19
14 | CGTAGC | 1.05
15 | TTCCAT | 1.23
16 | TTGGGG | 1.1
17 | TCTATC | 1.18
18 | ATACAC | 1.24
19 | TCAGCC | 0.967
20 | CGCGAA | 0.96
21 | ATTTAG | 1.09
22 | TGTATA | 1.09
23 | GTTTCT | 1.32
24 | GGATTC | 0.954
25 | ACGGAT | 1.32
26 | AGCTCT | 1.15
27 | CTTTCG | 1.22
28 | ACTAGA | 0.908
29 | ATGCGC | 1.11
30 | ATCGTT | 0.968
31 | TTTCCC | 1.9

Row | Sequence | binding signal
32 | CTCGAG | 1.1
33 | TGGCCA | 1.01
34 | ACTCAT | 1.22
35 | CATAGA | 0.882
36 | CCACAA | 1.12
37 | CGCACT | 1.32
38 | ATCTGC | 1.32
39 | TCCAAA | 1.14
40 | TAATTC | 1.52
41 | CATCAA | 0.928
42 | TAAAGG | 1.03
43 | TCTATG | 1.07
44 | AAGGTC | 0.891
45 | GAAAGT | 0.834
46 | TAGAGA | 0.777
47 | CTTTGT | 1.23
48 | TGGAAC | 0.95
49 | CCTCCG | 1.41
50 | AAATCT | 1.29
51 | TCCTAA | 1.45
